Ten molecules from paper doi:10.1101/2023.08.10.552820 can be followed below.

Changes are numbered by the printed parent chain. These are yes or no findings as the source states them, for the method shown. For some of these results: Binding calls can cover weak binding; strength is not graded here. For some of these results: Tags and fused reporters may be left off the sequences shown. For some of these results: Binding seen in cells or lysates may run through a third protein.

For experiment [1], the target named is T1, UBC13A (AtUBC35), two-hybrid fusion (Arabidopsis) (UniProt Q94A97).
T1 sequence: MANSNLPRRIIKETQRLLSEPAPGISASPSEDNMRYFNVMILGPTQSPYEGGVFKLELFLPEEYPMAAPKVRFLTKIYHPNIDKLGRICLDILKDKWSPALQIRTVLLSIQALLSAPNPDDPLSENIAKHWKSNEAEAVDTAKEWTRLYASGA
Description: two-hybrid.

Experiment [2] has as its target T2, UBC13B (AtUBC36), two-hybrid fusion (Arabidopsis) (UniProt Q9FZ48).
T2 sequence: T1 sequence with D32E, D140E
Description: two-hybrid.

For experiment [3], the target named is Fni3 (Fen-interacting protein 3), two-hybrid bait (tomato (Solanum lycopersicum)) (UniProt V5KY71). Description: two-hybrid.
The target in experiment [4] is XBAT35.2-nYFP (Arabidopsis). Description: split reporter.
Experiment [5] deals with XBAT35.2^ΔANK-cYFP (Arabidopsis). Description: split reporter.
The target of experiment [6] is XBAT35.2-cYFP (Arabidopsis). Description: split reporter.
For experiment [7], the target named is XBAT35.2^ΔRING-cYFP (Arabidopsis). Description: split reporter.
In experiment [8] the target is XBAT35.2^AA-nYFP (Arabidopsis). Description: split reporter.
Experiment [9] has as its target XBAT35.2^ΔRING-nYFP (Arabidopsis). Description: split reporter.
The target of experiment [10] is XBAT35.2-FLAG (Arabidopsis). Description: co-IP.

For the molecule “XBAT35.2, two-hybrid fusion (Arabidopsis) (enzyme)”, the binding result in experiment [1] and in [2] was “binds” in each case. As to “Fti1B (XBSL34), two-hybrid prey (from UniProt A0A3Q7HJI5) (enzyme)”, the binding entry in experiment [3] is on record as “binds”.

B1: DRP1A-cYFP (protein, UniProt P42697 1-610)
chain: MENLISLVNKIQRACTALGDHGDSSALPTLWDSLPAIAVVGGQSSGKSSVLESIVGKDFLPRGSGIVTRRPLVLQLQKIDDGTREYAEFLHLPRKKFTDFAAVRKEIQDETDRETGRSKAISSVPIHLSIYSPNVVNLTLIDLPGLTKVAVDGQSDSIVKDIENMVRSYIEKPNCIILAISPANQDLATSDAIKISREVDPSGDRTFGVLTKIDLMDKGTDAVEILEGRSFKLKYPWVGVVNRSQADINKNVDMIAARKREREYFSNTTEYRHLANKMGSEHLAKMLSKHLERVIKSRIPGIQSLINKTVLELETELSRLGKPIAADAGGKLYSIMEICRLFDQIFKEHLDGVRAGGEKVYNVFDNQLPAALKRLQFDKQLAMDNIRKLVTEADGYQPHLIAPEQGYRRLIESSIVSIRGPAEASVDTVHAILKDLVHKSVNETVELKQYPALRVEVTNAAIESLDKMREGSKKATLQLVDMECSYLTVDFFRKLPQDVEKGGNPTHSIFDRYNDSYLRRIGSNVLSYVNMVCAGLRNSIPKSIVYCQVREAKRSLLDHFFAELGTMDMKRLSSLLNEDPAIMERRSAISKRLELYRAAQSEIDAVAWSK
As for B1, in [4], the binding entry is given as “no binding”.

B2: VPS28-2-nYFP (protein, UniProt Q9S9T7 1-210)
chain: MMEVKLWNDKREREMYENFAELFAIIKATEKLEKAYIRDLINPSEYESECQKLIVHFKTLSATLKDTVPNIERFADTYKMDCPAALYRLVTSGLPATVEHRATVAASTSNSASIVAECVQNFITSMDSLKLNMVAVDQVYPLLSDLSASLNKLSILPPDFEGKTKMKEWLSRLSKMGAADELTEQQSRQLHFDLESSYNSFMAALPKAGN
Take B2: the values for the binding result in experiment [5], in [6] and in experiment [7] were “no binding”, “binds” and “binds”, respectively.

B3: VPS28-2-cYFP (protein, UniProt Q9S9T7 1-210)
chain: B2 chain
Take B3: the binding result in [4], in experiment [8] and in experiment [9] was “binds” throughout.

B4: DRP2B-cYFP (protein, UniProt Q9LQ55 1-920)
chain: MEAIDELSQLSDSMRQAASLLADEDPDETSSSRRPATSLNVVALGNVGAGKSAVLNSLIGHPVLPTGENGATRAPIIIDLSREESLSSKAIILQIDNKNQQVSASALRHSLQDRLSKGASGRGRDEIYLKLRTSTAPPLKLIDLPGLDQRIVDDSMIGEHAQHNDAILLVVVPASQASEISSSRALKIAKEYDPESTRTVGIISKIDQAAENPKSLAAVQALLSNQGPPKTTDIPWVALIGQSVSIASAQSGGSENSLETAWRAESESLKSILTGAPQSKLGRIALVDTLASQIRSRMKLRLPNILTGLQGKSQIVQDELARLGEQLVSSAEGTRAIALELCREFEDKFLLHLAGGEGSGWKVVASFEGNFPNRIKKLPLDRHFDLNNVKRIVLEADGYQPYLISPEKGLRSLIKTVLELAKDPARLCVDEVHRVLVDIVSASANATPGLGRYPPFKREVVAIASAALDGFKNEAKKMVVALVDMERAFVPPQHFIRLVQRRMERQRREEELKGRSSKKGQDAEQSLLNRATSPQPDGPSSTGGSLKSLRDKLMPQDKDKDKEKETPEVSGLKTAGPEGEITAGYLMKKSAKTNGWSRRWFVLNEKTGKLGYTKKQEERNFRGTVTLEECSIEEISDDEGEKSKSSKDKKSNGPDSKGPGLVFKITCRVPYKTVLKAHNALVLKAESMVDKNEWINKLQKVIQARGGQVGSASMRQSLSEGSLDKMVRKPVDPEEELRWMSQEVRGYVEAVLNSLAANVPKAVVLCQVEKSKEDMLNQLYSSISAIGNERIESLIQEDQNVKRRRDRYQKQSSLLSKLTRQLSIHDNRAAAASSWSDNSGTESSPRTNGGSSGEDWMNAFNAAASGPDSLKRYGSGGHSRRYSDPAQNGEDSSGSGGSSRRTTPNRLPPAPPQSGSSYRY
As to B4, the binding result in [4] was “no binding”.

B5: BAK1-nYFP (receptor, UniProt Q94F62 26-615)
chain: NAEGDALSALKNSLADPNKVLQSWDATLVTPCTWFHVTCNSDNSVTRVDLGNANLSGQLVMQLGQLPNLQYLELYSNNITGTIPEQLGNLTELVSLDLYLNNLSGPIPSTLGRLKKLRFLRLNNNSLSGEIPRSLTAVLTLQVLDLSNNPLTGDIPVNGSFSLFTPISFANTKLTPLPASPPPPISPTPPSPAGSNRITGAIAGGVAAGAALLFAVPAIALAWWRRKKPQDHFFDVPAEEDPEVHLGQLKRFSLRELQVASDNFSNKNILGRGGFGKVYKGRLADGTLVAVKRLKEERTQGGELQFQTEVEMISMAVHRNLLRLRGFCMTPTERLLVYPYMANGSVASCLRERPESQPPLDWPKRQRIALGSARGLAYLHDHCDPKIIHRDVKAANILLDEEFEAVVGDFGLAKLMDYKDTHVTTAVRGTIGHIAPEYLSTGKSSEKTDVFGYGVMLLELITGQRAFDLARLANDDDVMLLDWVKGLLKEKKLEALVDVDLQGNYKDEEVEQLIQVALLCTQSSPMERPKMSEVVRMLEGDGLAERWEEWQKEEMFRQDFNYPTHHPAVSGWIIGDSTSQIENEYPSGPR
As to B5, the binding result in experiment [6] and in experiment [7] was “binds” each time.

B6: BAK1-HA (receptor, UniProt Q94F62 26-615)
chain: B5 chain
Take B6: the binding entry in experiment [10] is “binds”.

B7: VPS37-1-cYFP (protein, UniProt Q9SCP9 1-217)
chain: MFNFWGSKDQQQGQSRPQEASSQSPWYSPSLVSSPSSSRPQSSGQISAQVSPGEAAGIIVFLKDKSVDELRKLLSDKDAYQQFLLSLDQVKVQNNIKDELRRETLQLARDNLEKEPQIMELRNQCRIIRTTELATAQEKLNELERQKEEILKFYSPGSLLHKLQEAMNQVDEESEALQEKFLEKEIDTAAFVQKYKKLRTTYHRRALIHLAAKTSNI
On to B7, for which the binding entry in experiment [4] and in experiment [8] was “binds” in each case.

B8: VPS37-1-nYFP (protein, UniProt Q9SCP9 1-217)
chain: B7 chain
B8: the binding result in [5] is listed as “no binding”; in [6], “binds”; in experiment [7], “binds”.
